Data on 30 compounds can be found in PubChem BioAssay AID256 (DTP/NCI, 2004).

The experiment has as its system CD2F1 mice, L1210 leukemia ip, survival T/C. Description: NCI In Vivo Anticancer Drug Screen. Data for tumor model L1210 Leukemia (intraperitoneal) in CD2F1 (CDF1) mice. The following applies: higher T/C = longer survival. In outline:
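Read-out first: treated-group measurement over vehicle-control measurement, expressed as a ratio. Animals bore a transplanted tumor line and were dosed with compound or vehicle.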

Where [1] appears, read: T/C endpoint: median survival time, dose: 400.0 mg/kg/injection, schedule: Q01DX009 (ip), vehicle: Klucel (hydroxypropylcellulose) (HPC).
[2] abbreviates: T/C endpoint: mean survival time, dose: 200.0 mg/kg/injection, schedule: Q04DX003 (ip), vehicle: saline with Tween-80.
Setting [3] is: T/C endpoint: mean survival time, dose: 400.0 mg/kg/injection, schedule: Q04DX003 (ip), vehicle: saline with Tween-80.
[4] abbreviates: T/C endpoint: mean survival time, dose: 400.0 mg/kg/injection, schedule: Q01DX001 (ip), vehicle: saline with Tween-80.
Setting [5] is: T/C endpoint: mean survival time, dose: 400.0 mg/kg/injection, schedule: Q04DX003 (ip), vehicle: other.
[6] abbreviates: T/C endpoint: mean survival time, dose: 200.0 mg/kg/injection, schedule: Q04DX002 (ip), vehicle: saline with Tween-80.
[7] abbreviates: T/C endpoint: mean survival time, dose: 400.0 mg/kg/injection, schedule: Q04DX002 (ip), vehicle: saline with Tween-80.
Where [8] appears, read: T/C endpoint: mean survival time, dose: 400.0 mg/kg/injection, schedule: Q01DX009 (ip), vehicle: saline with Tween-80.
[9] abbreviates: T/C endpoint: mean survival time, dose: 12.5 mg/kg/injection, schedule: Q01DX009 (ip), vehicle: saline.
The mark [10] stands for this setting: T/C endpoint: mean survival time, dose: 50.0 mg/kg/injection, schedule: Q01DX009 (ip), vehicle: saline with Tween-80.

The list shows only some results of the screen, not a fair sample: it gathers tests that were run many times, whatever their T/C, doses with no T/C, and many T/C values between a quarter and a half above the control. Other doses and runs of a compound stand elsewhere. T/C gives the treated animals as a percentage of the vehicle group. Some entries give survivors of the animals treated and no T/C: the source holds a T/C of zero for them, seemingly a mark for toxic or unscored doses. Some survivor counts are full or nearly so, which does not show that the dose was tolerated: survival well below the control is almost never listed, so the zero probably covers shortened survival too. Survivors were counted at the toxicity check, usually on the fifth day, unless a day is given; later deaths do not show. Schedule codes are those of the source, read here as Q, the interval in days (D) or hours (H), X, the number of doses. Some entries were tested several times; the values are given in rising order. Where survival is the endpoint, the PubChem record calls one and a half times the control and up active, and a quarter to a half above the control has no call in these data; cut-offs in other NCI protocols can differ. Some T/C values carry the count of animals alive at the toxicity check (mostly the fifth day); without a count, all were alive then.

As for `C=CCOc1cc2c(cc1C(C)c1ccc(OC)cc1)OCO2` (stereo unspecified), the T/C is, setting by setting: (T/C endpoint: median survival time, dose: 100.0 mg/kg/injection, schedule: Q01DX009 (ip), vehicle: Klucel (hydroxypropylcellulose) (HPC)) 127 % of control; (T/C endpoint: median survival time, dose: 200.0 mg/kg/injection, schedule: Q01DX009 (ip), vehicle: Klucel (hydroxypropylcellulose) (HPC)) 136, 139, 143 % of control; (T/C endpoint: median survival time, dose: 200.0 mg/kg/injection, schedule: Q01DX009 (ip), vehicle: saline with Tween-80) 125 % of control; under setting [1], 127 % of control. For the same compound, the survivor count is, setting by setting: under setting [1], 4 of 6 and 5 of 6; (T/C endpoint: median survival time, dose: 800.0 mg/kg/injection, schedule: Q01DX009 (ip), vehicle: Klucel (hydroxypropylcellulose) (HPC)) 0 of 6.
As to `CSc1cc(NC(C)=O)nc2nc[nH]c12`, where the note is “T/C endpoint: mean survival time, dose: 400.0 mg/kg/injection, schedule: Q01DX001 (ip), vehicle: Klucel (hydroxypropylcellulose) (HPC)”, the survivor count was 1 of 6.
For `CCN(CC)CC#CCCCCN(CC)CC`, the survivor count by setting is: under setting [2], 2 of 6; under setting [3], 0 of 6.
In the case of `O=C1C(=O)N(CNC(c2ccccc2)c2ccccc2)c2ccccc21`, where the note is “T/C endpoint: mean survival time, dose: 200.0 mg/kg/injection, schedule: Q01DX001 (ip), vehicle: saline with Tween-80”, the survivor count is 5 of 6.
On to `NC1=NC(=O)CC(=O)N1`, for which the survivor count under setting [4] is on record as 1 of 6.
For the compound `CN(CCOS(C)(=O)=O)CCOS(C)(=O)=O`, the T/C (T/C endpoint: mean survival time, dose: 1.5 mg/kg/injection, schedule: Q01DX001 (ip), vehicle: saline) was 149 % of control and the T/C (T/C endpoint: mean survival time, dose: 3.37 mg/kg/injection, schedule: Q01DX001 (ip), vehicle: saline) is 132 % of control. For the same compound, the survivor count reads like this: (T/C endpoint: mean survival time, dose: 3.0 mg/kg/injection, schedule: Q01DX001 (ip), vehicle: saline) 1 of 4; (T/C endpoint: mean survival time, dose: 6.0 mg/kg/injection, schedule: Q01DX001 (ip), vehicle: saline) 0 of 4.
Consider `COC(=O)C1C(O)C(C)C(O)OC1C(C)C(O)C(C)/C=C\C=C(/C)C(=O)Nc1c(C)c(OC(C)=O)c2c(c1O)C(=O)C(C)=C1OCOC(/C(C)=C/C(C)=O)=C12` (stereo unspecified), for which, where the note is “T/C endpoint: mean survival time, dose: 400.0 mg/kg/injection, schedule: Q01DX009 (ip), vehicle: saline”, the survivor count is given as 3 of 6.
As to `O=C(C=C(C(F)(F)F)C(F)(F)F)c1ccccc1[N+](=O)[O-]`, the survivor count runs as follows: (T/C endpoint: mean survival time, dose: 50.0 mg/kg/injection, schedule: Q04DX003 (ip), vehicle: other) 3 of 6; (T/C endpoint: mean survival time, dose: 100.0 mg/kg/injection, schedule: Q04DX003 (ip), vehicle: other) 6 of 6; (T/C endpoint: mean survival time, dose: 200.0 mg/kg/injection, schedule: Q04DX003 (ip), vehicle: other) 6 of 6; under setting [5], 3 of 6.
Turning to `O=C1OC(Cc2ccccc2)(c2ccccc2)c2ccccc21` (stereo unspecified), under setting [3], the survivor count was 6 of 6.
`CCCCCCC(=O)CCCCCC/C=C/CC(O)C(O)C(N)(CO)C(=O)O` (stereo unspecified): the survivor count is recorded as 1 of 3 (T/C endpoint: mean survival time, dose: 25.0 mg/kg/injection, schedule: Q04DX002 (ip), vehicle: saline with Tween-80) and 0 of 3 (T/C endpoint: mean survival time, dose: 50.0 mg/kg/injection, schedule: Q04DX002 (ip), vehicle: saline with Tween-80).
Turning to `N.N.N.N.N.N#CN=C(N)N.[Co+3].[O-][Cl+3]([O-])([O-])[O-]`, the survivor count (T/C endpoint: mean survival time, dose: 200.0 mg/kg/injection, schedule: Q04DX002 (ip), vehicle: saline) is 0 of 3.
Regarding `c1ccc(CNc2nnnn2C2CCCCC2)cc1`, the survivor count by setting is: (T/C endpoint: mean survival time, dose: 100.0 mg/kg/injection, schedule: Q04DX002 (ip), vehicle: saline with Tween-80) 0 of 3; under setting [6], 0 of 3; under setting [7], 0 of 3.
Take `Nc1nc(-c2cccc([N+](=O)[O-])c2)c(N=Nc2ccccc2)s1`: under setting [4], the survivor count is recorded as 3 of 6.
For `CCCCCCCCCCCCCCCC(=O)N1CCC(N2CCCCC2)CC1`, the survivor count under setting [3] is 6 of 6.
For the compound `O=C1/C(=C/c2ccc([N+](=O)[O-])cc2)CCc2ccccc21`, the survivor count (T/C endpoint: mean survival time, dose: 400.0 mg/kg/injection, schedule: Q01DX009 (ip), vehicle: Klucel (hydroxypropylcellulose) (HPC)) is 5 of 6.
With `Cc1cccnc1N.[Cl-].[Cl-].[Cl-].[Cl-].[Pt+2]`, the survivor count runs as follows: (T/C endpoint: mean survival time, dose: 87.5 mg/kg/injection, schedule: Q04DX003 (ip), vehicle: saline with Tween-80) 3 of 3; (T/C endpoint: mean survival time, dose: 175.0 mg/kg/injection, schedule: Q04DX003 (ip), vehicle: saline with Tween-80) 0 of 3; (T/C endpoint: mean survival time, dose: 350.0 mg/kg/injection, schedule: Q04DX003 (ip), vehicle: saline with Tween-80) 0 of 3.
`c1ccc(NC2=NCCO2)nc1`: the survivor count under setting [4] is 3 of 6.
As for `NN1CCCCC1`, the survivor count (T/C endpoint: mean survival time, dose: 400.0 mg/kg/injection, schedule: Q04DX002 (ip), vehicle: saline) is reported as 2 of 3.
`COc1ccc([Si](C)(C)CNCCSS(=O)(=O)O)cc1`: under setting [3], the survivor count is given as 4 of 6.
As to `O=c1[nH]ccc2sccc12`, the survivor count is 2 of 6 under setting [2] and 3 of 6 under setting [8].
With `C#CC(C)(C)OCC(CCl)OC(N)=O` (stereo unspecified), the survivor count under setting [8] is 0 of 6.
On to `O=[N+]([O-])c1c(O)cc(O)c2ccccc12`, for which the survivor count by setting is: (T/C endpoint: mean survival time, dose: 100.0 mg/kg/injection, schedule: Q01DX001 (ip), vehicle: saline) 0 of 6; (T/C endpoint: mean survival time, dose: 200.0 mg/kg/injection, schedule: Q01DX001 (ip), vehicle: saline) 0 of 6; (T/C endpoint: mean survival time, dose: 400.0 mg/kg/injection, schedule: Q01DX001 (ip), vehicle: saline) 0 of 6.
`ClCCN(CC#CCCCC#CCN(CCCl)CCCl)CCCl`: the T/C by setting is: under setting [9], 140 % of control; (T/C endpoint: mean survival time, dose: 25.0 mg/kg/injection, schedule: Q01DX009 (ip), vehicle: saline) 140 % of control. The survivor count by setting is: under setting [9], 3 of 6; (T/C endpoint: mean survival time, dose: 100.0 mg/kg/injection, schedule: Q01DX009 (ip), vehicle: saline) 1 of 6.
For `O=C(CBr)c1cccc(OC(=O)c2ccccc2)c1`, the survivor count under setting [10] is on record as 2 of 6.
With `N#C/C=C/C#N`, the survivor count by setting is: (T/C endpoint: mean survival time, dose: 3.13 mg/kg/injection, schedule: Q01DX009 (ip), vehicle: saline with Tween-80) 0 of 6; (T/C endpoint: mean survival time, dose: 6.25 mg/kg/injection, schedule: Q01DX009 (ip), vehicle: saline with Tween-80) 0 of 6; (T/C endpoint: mean survival time, dose: 12.5 mg/kg/injection, schedule: Q01DX009 (ip), vehicle: saline with Tween-80) 0 of 6; (T/C endpoint: mean survival time, dose: 25.0 mg/kg/injection, schedule: Q01DX009 (ip), vehicle: saline with Tween-80) 3 of 6; under setting [10], 1 of 6; (T/C endpoint: mean survival time, dose: 100.0 mg/kg/injection, schedule: Q01DX009 (ip), vehicle: saline with Tween-80) 0 of 6.
For the compound `NNC(=O)OCc1ccccc1`, the survivor count is recorded as 1 of 3 under setting [6] and 0 of 3 under setting [7].
For `O=[N+]([O-])c1ccccc1CSc1ncnc2nc[nH]c12`, under setting [2], the T/C was 134 and 141 % of control. The survivor count (T/C endpoint: mean survival time, dose: 300.0 mg/kg/injection, schedule: Q04DX003 (ip), vehicle: saline with Tween-80) is 6 of 6.
For the compound `CC(C)(C)c1ccc(OCC(=O)O)cc1`, the survivor count under setting [5] is recorded as 0 of 6.
Take `CN(C)N=Nc1c(F)c(F)c(C(N)=O)c(F)c1F`: the T/C is, setting by setting: (T/C endpoint: mean survival time, dose: 12.5 mg/kg/injection, schedule: Q01DX009 (ip), vehicle: other) 127 % of control; (T/C endpoint: mean survival time, dose: 25.0 mg/kg/injection, schedule: Q01DX009 (ip), vehicle: other) 125 and 135 % of control; (T/C endpoint: mean survival time, dose: 50.0 mg/kg/injection, schedule: Q01DX009 (ip), vehicle: other) 129 % of control [5 of 6 alive]. In addition, the survivor count reads like this: (T/C endpoint: mean survival time, dose: 100.0 mg/kg/injection, schedule: Q01DX009 (ip), vehicle: other) 3 of 6; (T/C endpoint: mean survival time, dose: 200.0 mg/kg/injection, schedule: Q01DX009 (ip), vehicle: other) 2 of 6; (T/C endpoint: mean survival time, dose: 400.0 mg/kg/injection, schedule: Q01DX009 (ip), vehicle: other) 0 of 6.
For the compound `C=C(C)CSC#N`, the survivor count is listed as 3 of 6 under setting [2] and 0 of 6 under setting [3].
